Measured values reported in PubChem BioAssay AID449 (The Scripps Research Institute Molecular Screening Center, 2006).
Some of the results follow. These are further read-outs of the screen, such as a control signal, another cell line or another target. No call is given for them. The list favours compounds with an active or inconclusive main result.

Sequences of proteins named here, by UniProt entry; tags and fusion partners are left off.
UniProt P21453, whole entry, looked up: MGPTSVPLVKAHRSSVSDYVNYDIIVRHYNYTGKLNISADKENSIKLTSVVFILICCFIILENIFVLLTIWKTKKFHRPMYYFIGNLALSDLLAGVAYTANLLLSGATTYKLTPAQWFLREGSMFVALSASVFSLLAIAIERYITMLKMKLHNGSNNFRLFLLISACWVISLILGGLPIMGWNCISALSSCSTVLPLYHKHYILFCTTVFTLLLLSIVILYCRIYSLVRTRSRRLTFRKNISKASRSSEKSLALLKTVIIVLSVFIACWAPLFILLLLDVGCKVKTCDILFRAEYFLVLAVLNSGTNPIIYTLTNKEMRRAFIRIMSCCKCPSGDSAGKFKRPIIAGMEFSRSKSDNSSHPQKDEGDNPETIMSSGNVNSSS

The molecules below were run against Sphingosine 1-phosphate receptor 1 (Homo sapiens) (UniProt P21453) (assay: S1P1 agonists and agonism potentiators, primary screen, cell-based, primary and confirmation screens, CRE-bla reporter (AID 449;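 note: forskolin at 4 µM as EC80 and the EC20 agonist is SEW2871; 100% = SEW2871 at its EC100 plus forskolin at EC80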)). Conditions: S1P1 CRE-bla cells, forskolin, beta-lactamase FRET, potentiator mode; measured here: confirmation screen, triplicate average; at 9.5 µM; stronger effect = higher value.

Q: Cn1ncnc2c(=O)n(C)c(=O)nc1-2 was tested. Which activation did it give?
A: 105%

Q: Which activation does the source give for CCC(=NCCOc1ccc(Cl)cc1)c1c(O)n(C)c(=O)n(C)c1=O here?
A: 87%

Q: With CCn1nc(-c2ccccc2)nc2c(=O)n(C)c(=O)nc1-2 as the molecule, how does the activation read?
A: 106%

Q: CCn1nc(-c2cccs2)nc2c(=O)n(C)c(=O)nc1-2 was tested. Which activation did it give?
A: 86.5%

Q: For Oc1ccc(C2NCc3ccccc3-n3cccc32)cc1Cl (stereo not given), which activation is on record?
A: 93.7%
